Laboratory results reported in PubChem BioAssay AID2685 (National Center for Advancing Translational Sciences (NCATS), 2010).
In all, about 320,000 compounds went through this assay and about 2,100 (0.66%) were called active. This list was built around the results that the source calls inconclusive (neither active nor inactive); the mix of calls is not that of the screen. Calls follow the shape of the dose curve; as a rule, active = well fitted inhibition curve with a large enough effect in the signal ratio, with a control signal flat (not every such curve was filed as active); inconclusive = small, poorly fitted or top-dose-only effect, or effect the other way, or a change in a side signal; inactive = flat fitted curve, though single readings scatter; the % refers to the signal ratio. A potency beside an inconclusive call is a rough fit, not a confirmed value.

Experiment: qHTS Assay for Lipid Storage Modulators in Drosophila S3 Cells
Conditions: BODIPY lipid droplet fluorescence, 18-24 h, cells fed with added oleic acid; lipid storage change, negative = inhibition: at 46.1 µM (top of the series) unless noted
Method in brief: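 Laser-scanning cytometry quantifies lipid droplet accumulation (500–530 nm total intensity; droplet/cell object ratio) in oleic acid-fed (400 uM added) Drosophila S3 cells treated with a concentration series. 20 uM Triacsin C defined 100% inhibition.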
% is scaled to controls: 0 for no effect and ±100 for the full control effect; potency is read from the fitted curve at half-maximal effect.

SMILES	Potency	lipid storage change, negative = inhibition
CC(C)Oc1cccc(C(=O)Nc2ccccc2N2CCOCC2)c1	inconclusive: 6.51 µM [activator, single point]	–
COc1ccc(C(=O)N/N=C(/C)c2cccc(NC(=O)c3ccccc3F)c2)cc1	inconclusive: 29.1 µM [falling, single point]	–
COc1ccccc1C(=O)COC(=O)c1ccccc1O	–	inconclusive: 16.7%
COC(=O)[C@@H](Cc1c[nH]c2ccccc12)NC(=O)CCC(=O)c1ccc(F)cc1	–	inconclusive: 0.749%
CCOC(=O)c1ccc(NC(=O)Nc2ccc(Cl)cn2)cc1	–	inconclusive: -14.5%
O=C(Nc1ccc(S(=O)(=O)Nc2ncccn2)cc1)c1nn(Cc2ccccc2)c(=O)c2ccccc12	–	inconclusive: 36.1%
C=CCN(C(=O)CCC(=O)Nc1cc(C)on1)C(C(=O)NC1CCCC1)c1cccnc1 (stereo unspecified)	–	inconclusive: 13.4%
O=C1Nc2ccccc2N(O)N1c1cc(-c2cccc(Cl)c2)no1	–	inactive
CCOC(=O)C1CCN(c2nc(-c3ccc(C)cc3)nc3ccccc23)CC1	–	inactive
CCOC(=O)c1c(CN2CCN(C)CC2)oc2ccc(OC)cc12	–	inconclusive: 23.2%
Cn1c(=O)c2c(nc(NCc3ccco3)n2CCc2ccccc2)n(C)c1=O	active: 11.6 µM	–
O=C(COc1cccc2ccccc12)NNC(=O)c1cccs1	–	inconclusive: -30.9%
O=C(CN1C(=O)NC2(CCCCC2)C1=O)Nc1nc2c(F)cc(F)cc2s1	–	inconclusive
COc1ccc(CN(C)CC(=O)Nc2ccccc2-c2ccccc2)c(OC)c1	–	inconclusive: -43.1%
COc1ccc(C(=O)Nn2c(C)nc3ccccc3c2=O)c(OC)c1	–	inconclusive: 32.4%
COc1ccccc1N(C)S(=O)(=O)c1ccc(C(=O)NC(C)c2ccccc2)cc1 (stereo unspecified)	–	inconclusive: -14.5%
CCOC(=O)CSC1=NC(=O)/C(=C/c2ccc(OC)cc2)S1	inconclusive: 32.6 µM [falling, single point]	–
CCS(=O)(=O)c1nc(S(=O)(=O)c2ccc(C)cc2)c(NCCN2CCOCC2)s1	–	inactive
COc1cccc(CN2CCN(c3nc4nonc4nc3NC3CC3)CC2)c1	–	inconclusive: -4.23%
CCC1Oc2ccc(Cl)cc2N(CC(=O)O)C1=O (stereo unspecified)	–	inconclusive: 1.19%
CCOc1ccc2nc(NC3=NC(c4ccc(OC)cc4)CC(=O)N3)nc(C)c2c1 (stereo unspecified)	inconclusive: 16.4 µM [falling, partial curve, poor fit]	–
CCn1c(CSc2nc3ccccc3[nH]2)n[nH]c1=S	–	inconclusive: 0.29%
CN(Cc1ccccc1)c1ncnc2ccc(Br)cc12	–	inconclusive: 81.8%
O=c1[nH]nc(CNc2ccc(C(F)(F)F)cc2)c2ccccc12	–	inconclusive: -11.7%
CCOc1ccc2oc(C(=O)OCC(=O)N3CCCC(C)C3)c(C)c2c1 (stereo unspecified)	–	inconclusive: 15.3%
CC(Oc1ccc2c(c1)oc(=O)c1ccccc12)C(=O)NCC1CCC(C(=O)O)CC1 (stereo unspecified)	–	inconclusive: -48.8%

SMILES	Potency	lipid storage change, negative = inhibition
COc1cccc(CNC(=O)CN2C(=O)COc3ccc(S(=O)(=O)N4CCCCC4)cc32)c1	–	inconclusive: -82.5%
COc1cccc(NC(=O)CCC(=O)Nc2cc(OC)c(NC(=O)c3cccs3)cc2OC)c1	inconclusive: 23.1 µM [falling, single point]	–
CCCOc1ccc(C2C(C(=O)c3ccc(C)o3)=C(O)C(=O)N2Cc2cccnc2)cc1 (stereo unspecified)	inconclusive: 0.0046 µM [falling, full curve, poor fit]	–
CCOC(=O)C1CCN(C(=O)CC(C)S(=O)(=O)c2ccc3c(c2)NC(=O)CO3)CC1 (stereo unspecified)	inconclusive: 14.6 µM [activator, partial curve, poor fit]	–
O=C(CSc1nc(C2CC2)nc2ccccc12)Nc1cccc(O)c1	inconclusive: 20.6 µM [falling, single point]	–
COC(=O)Cn1c(C)nc([N+](=O)[O-])c1Br	–	inconclusive: 17.3%
CCOC(=O)N1CCN(Cc2nc3c(c(=O)n(C)c(=O)n3C)n2Cc2cc(C)ccc2C)CC1	–	inconclusive: 64%
O=C(NCc1cccs1)c1cc(-c2ccncc2)nc2ccc(Br)cc12	inconclusive: 32.6 µM [falling, single point]	–
Cc1ccc(/C=N/Nc2ccccn2)s1	inconclusive: 29.1 µM [activator, single point]	–
Cc1ccc(NC(=O)CCC(=O)NNC(=S)Nc2ccc(F)cc2F)cc1C	–	inconclusive: -17.3%
CCCn1c(SCC(=O)Nc2cccc(C(=O)OCC)c2)nnc1-c1ccoc1C	inconclusive: 18.4 µM [activator, partial curve]	–
CN(CC(=O)Nc1ccc(F)cc1)C(=O)c1cc([N+](=O)[O-])ccc1N1CCOCC1	inconclusive: 1.64 µM [activator, partial curve, poor fit]	–
Cc1nc2cc(NC(=O)CS(=O)(=O)c3ccc(F)cc3)ccc2s1	inconclusive: 0.731 µM [rising, full curve]	–
CC(=O)N(C)c1ccc(N=Cc2c(O)ccc3ccccc23)cc1	–	inconclusive: -11%
COc1cc(OC)c2ccc(=O)oc2c1C(CC(=O)N1CCCC(C)C1)c1ccc2c(c1)OCO2 (stereo unspecified)	–	inconclusive: 15.9%
Oc1ccc(Br)cc1/C=N/N1CCN(Cc2cccc3ccccc23)CC1	–	inactive
COc1ccc(C(=O)c2oc3ccc(Br)cc3c2NC(C)=O)cc1	–	inconclusive: -1%
COc1ccc(OCC(=O)Nc2c3c(nn2C(C)(C)C)CS(=O)(=O)C3)cc1	–	inconclusive: -16.7%
O=C(CC1(O)C(=O)Nc2ccccc21)c1ccccc1O (stereo unspecified)	–	inconclusive: 9.27%
O=C(/C=C/c1cccc([N+](=O)[O-])c1)c1ccco1	active: 4.11 µM	–
CCN(CC)CCCNC(=O)Cn1ncn2cccc2c1=O	–	inconclusive: -4.48%
COc1ccccc1OCCOCCOc1c(C)cc(C)cc1Br	inconclusive: 32.6 µM [activator, single point]	–
CCOC(=O)N1CCN(C(=O)c2ccc(NC(=O)c3ccc(C)cc3)cc2)CC1	–	inconclusive: 9.36%
CCC(=O)/C=C1\Sc2ccc(OC)cc2N1CC	–	inconclusive: 5.02%
Cc1ccc(NC(=O)CN2C(=O)c3ccccc3C2=O)c(C)c1	inconclusive: 5.8 µM [activator, full curve]	–
O=C(NCCc1c[nH]c2ccccc12)/C(=C\c1ccco1)NC(=O)c1ccco1	–	inconclusive: -5.95%

3 compounds drawn at random from those above, as already listed:
SMILES	Potency	lipid storage change, negative = inhibition
COc1ccc(C(=O)c2oc3ccc(Br)cc3c2NC(C)=O)cc1	–	inconclusive: -1%
COC(=O)[C@@H](Cc1c[nH]c2ccccc12)NC(=O)CCC(=O)c1ccc(F)cc1	–	inconclusive: 0.749%
O=C(CSc1nc(C2CC2)nc2ccccc12)Nc1cccc(O)c1	inconclusive: 20.6 µM [falling, single point]	–

More compounds follow:

SMILES	Potency	lipid storage change, negative = inhibition
Cc1cccc(Oc2ccc(NC(=O)C3CC=CCC3C(=O)O)cc2)c1 (stereo unspecified)	–	inconclusive: -32%
COc1ccc(C(=O)Nc2ccc(NC(C)=O)cc2)cc1S(=O)(=O)N1CCCC1	inconclusive: 25.9 µM [falling, partial curve, poor fit]	–
Cc1cc(C)cc(NC(=O)CCC(=O)Nc2nnc(C(F)(F)F)s2)c1	–	inconclusive: -22.6%
CCN(CC)C(=O)CSc1nc2c(sc(=S)n2Cc2ccco2)c(=O)n1-c1ccccc1	inconclusive: 7.31 µM [activator, partial curve]	–
O=C(CNC(=O)C12CC3CC(CC(C3)C1)C2)Nc1ncccc1O	inconclusive: 1.84 µM [falling, full curve]	–
CCN(CC)C(=O)c1ccc2c3c(cccc13)C(=O)N(CCc1ccc(OC)c(OC)c1)C2=O	–	inconclusive: -20.3%
CC(=O)NC(C)c1ccc(Cl)c(Cl)c1 (stereo unspecified)	–	inconclusive: -30.4%
Cc1ccc(-n2nnnc2SCC(=O)N2Cc3ccccc3CC2C(=O)O)cc1 (stereo unspecified)	–	inconclusive: 15.1%
COc1ccccc1CNC(=O)Cc1ccccc1	–	inconclusive: -43.4%
COC(=O)c1ccccc1NC(=O)Cn1cnc2cc(C)c(C)cc21	inconclusive: 2.06 µM [activator, full curve]	–
CCOC(=O)c1nn(-c2ccccc2)cc1O	–	inconclusive: 11.4%
CCOC(=O)N1CCN(C(=O)CNC(=O)c2ccc(Cl)cc2Cl)CC1	inconclusive: 0.146 µM [cytotoxic, full curve, poor fit]	–
COC(=O)c1c(NC(=O)COC(=O)CCS(=O)(=O)c2ccc(C)cc2)sc(C)c1C	inconclusive: 6.51 µM [activator, partial curve]	–
CC(=O)Nc1cccc(NC(=O)CSc2nccn2Cc2ccccc2)c1	inconclusive: 29.1 µM [falling, single point]	–
COCCN(C(=O)COC(=O)CCOc1ccccc1)c1c(N)n(Cc2ccccc2)c(=O)[nH]c1=O	–	inconclusive: 10.9%
COc1ccccc1C1C(C#N)=C(N)Oc2c1oc(CO)cc2=O (stereo unspecified)	–	inconclusive: 0.782%
COc1ccccc1-c1nnc(NC(=O)c2cccc(N3C(=O)CCC3=O)c2)o1	inconclusive: 29.1 µM [activator, partial curve, poor fit]	–
O=C(CSc1nnc(-c2ccc(Cl)cc2)n1Cc1ccco1)NCc1ccc2c(c1)OCO2	inconclusive: 4.11 µM [rising, single point]	–
Cc1cc(Cl)ccc1OCCCC(=O)NN	–	inconclusive: 5.16%
Cc1cc(NC(=O)CSc2nnc(C3CC3)n2C)no1	inconclusive: 3.66 µM [falling, single point]	–
CCCn1c(=O)c(Cc2ccccc2)c(O)c2ccccc21	inconclusive: 29.1 µM [falling, single point]	–
COc1ccc(CNC(=O)c2coc(=O)c3ccccc23)c(OC)c1	–	inconclusive: 24.2%
CSc1cnc2c(=O)n(C)c(=O)[nH]c2n1	–	inconclusive: -8.66%
O=C(NCCN1C(=O)S/C(=C/c2cccnc2)C1=O)C1CC(=O)N(Cc2ccccc2)C1 (stereo unspecified)	–	inconclusive: -32.2%

Copied from the list:
Entry for `O=C1Nc2ccccc2N(O)N1c1cc(-c2cccc(Cl)c2)no1` under lipid storage change, negative = inhibition: inactive
Entry for `Oc1ccc(Br)cc1/C=N/N1CCN(Cc2cccc3ccccc23)CC1` under lipid storage change, negative = inhibition: inactive
